± gives the uncertainty stated by the source. Only a part is listed here, and it is no random draw.

The test system of the test is FLX1. The test is described as follows: cell viability z-score within plate (CellTiter-Glo), mean of 3 biological replicates; higher = higher viability relative to plate (less growth inhibition). The settings on record: 2 µM; time (hr): 120. The procedure:
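FLX1 fibrolamellar carcinoma cells (DNAJB1-PRKACA fusion), 600 cells/well in 384-well plates, treated with a Selleck kinase inhibitor library (L1200) at 2 uM for 5 days (120 hr); viability by CellTiter-Glo. A z-score was computed within each plate and averaged over three biological replicates.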
(In ATP-based viability assays light output follows the ATP content of the culture.)
As for `Cc1nc2c(-c3cnc(N)nc3)nc(N3CCOCC3)nc2n1C(C)C`, the “cell viability z-score within plate” value was 0.31 ± 0.58. Consider `Cc1ccccc1-n1c(Cn2nc(-c3cccc(O)c3)c3c(N)ncnc32)nc2cccc(C)c2c1=O`, for which the “cell viability z-score within plate” value is -1.67 ± 0.24.

The record behind these values is the supplement of paper PMC9925115.
